From patent EP0212822A1, “A composition containing a plant growth regulator and an alkanol and a method of using the same” (ICI AMERICAS INC., priority 1985, dated 1987)

Tests used:
birch trees = assay: Movement of tracer dyes after injection into whole trees (dye spot area); type: in vivo; conditions: for mobility in trees: whole trees
[1] = test system: Ash (Fraxinus excelsior) and Birch (Betula pendula); assay: Distribution in the trunk ten days after injection (GLC of sawdust extracts); type: in vivo; conditions: ten days after treatment, 20 g/l (20 ml per hole) or 4 g/l (100 ml per hole) in methanol
[2] = 0.1% solution in methanol, 75ml injection volume, mean of five birch trees

SMILES	movement from the injection point (birch trees; [2])	mobility in trees (birch trees)	distance from the injection point of the largest dye spot area (birch trees; [2]) [metres]	distribution within the tree ([1]; listed as (II))	distribution within the tree ([1]; listed as II)
CN(C)c1ccc2nc3ccc(=[N+](C)C)cc-3sc2c1 [methylene blue]	≤ 0.5 metres	relatively immobile	–	–	–
CC1=CC(=C(c2ccc(N)c(S(=O)(=O)O)c2)c2ccc(N)c(S(=O)(=O)O)c2)C=C(S(=O)(=O)O)C1=N [acid fuschin]	above 2 metres	highly mobile	2	–	–
CC(C)(C)[C@@H](O)[C@@H](Cc1ccc(Cl)cc1)n1cncn1 (racemic) [Formula (II), (2RS,3RS)-1-(4-chlorophenyl-4,4-dimethyl-2-1,2,4-triazol-1-yl)pentan-3-ol]	–	–	–	remained close to the point of injection and had not moved substantially to the crowns of the trees	distributed close to the injection point
